Earlier results in US20060276549A1, “Combination and use of drugs” (priority 2005, published 2006).
Some entries share one result that the patent states for a list of compounds. Some compounds share one range, which may span the group rather than tell each member.

Settings: monotherapy, literature studies; cited from earlier work

CCCCCCCCCCC[C@@H](C[C@@H]1OC(=O)[C@H]1CCCCCC)OC(=O)[C@H](CC(C)C)NC=O [orlistat]
weight loss of body weight for drug compared to placebo: 5%-10%
